Experimental data published in the supplement of paper PMC6411743.
± gives the standard deviation of the averaged measurements. The entries are a selection whose mix differs from that of the whole data set. Most values lie at the level of the controls, where differences are scatter.

Sequences of proteins named here, by UniProt entry; tags and fusion partners are left off. A change or cut given only in a name is not applied to a line headed by its entry.
UniProt O60825: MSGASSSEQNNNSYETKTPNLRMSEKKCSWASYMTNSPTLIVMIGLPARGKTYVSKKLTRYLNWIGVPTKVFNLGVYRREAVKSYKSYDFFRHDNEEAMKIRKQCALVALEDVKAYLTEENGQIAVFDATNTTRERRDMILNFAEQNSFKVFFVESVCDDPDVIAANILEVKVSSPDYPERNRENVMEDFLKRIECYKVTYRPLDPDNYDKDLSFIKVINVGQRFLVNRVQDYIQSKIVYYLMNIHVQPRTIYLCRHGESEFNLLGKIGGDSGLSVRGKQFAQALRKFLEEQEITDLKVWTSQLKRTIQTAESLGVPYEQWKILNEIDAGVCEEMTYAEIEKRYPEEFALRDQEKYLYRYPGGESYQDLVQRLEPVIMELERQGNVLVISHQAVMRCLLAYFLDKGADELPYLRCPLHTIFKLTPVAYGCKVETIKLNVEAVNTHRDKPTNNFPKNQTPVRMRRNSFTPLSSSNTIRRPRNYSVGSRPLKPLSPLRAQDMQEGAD
UniProt O75791: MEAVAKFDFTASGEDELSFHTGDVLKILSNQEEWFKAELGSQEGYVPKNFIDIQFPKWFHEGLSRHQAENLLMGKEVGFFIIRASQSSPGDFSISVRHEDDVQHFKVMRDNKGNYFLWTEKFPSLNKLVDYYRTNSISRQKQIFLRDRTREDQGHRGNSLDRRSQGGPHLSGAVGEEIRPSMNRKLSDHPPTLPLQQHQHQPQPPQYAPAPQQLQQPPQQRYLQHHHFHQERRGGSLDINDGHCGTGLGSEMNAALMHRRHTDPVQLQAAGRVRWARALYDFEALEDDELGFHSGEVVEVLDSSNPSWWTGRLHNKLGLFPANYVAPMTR
UniProt O75081: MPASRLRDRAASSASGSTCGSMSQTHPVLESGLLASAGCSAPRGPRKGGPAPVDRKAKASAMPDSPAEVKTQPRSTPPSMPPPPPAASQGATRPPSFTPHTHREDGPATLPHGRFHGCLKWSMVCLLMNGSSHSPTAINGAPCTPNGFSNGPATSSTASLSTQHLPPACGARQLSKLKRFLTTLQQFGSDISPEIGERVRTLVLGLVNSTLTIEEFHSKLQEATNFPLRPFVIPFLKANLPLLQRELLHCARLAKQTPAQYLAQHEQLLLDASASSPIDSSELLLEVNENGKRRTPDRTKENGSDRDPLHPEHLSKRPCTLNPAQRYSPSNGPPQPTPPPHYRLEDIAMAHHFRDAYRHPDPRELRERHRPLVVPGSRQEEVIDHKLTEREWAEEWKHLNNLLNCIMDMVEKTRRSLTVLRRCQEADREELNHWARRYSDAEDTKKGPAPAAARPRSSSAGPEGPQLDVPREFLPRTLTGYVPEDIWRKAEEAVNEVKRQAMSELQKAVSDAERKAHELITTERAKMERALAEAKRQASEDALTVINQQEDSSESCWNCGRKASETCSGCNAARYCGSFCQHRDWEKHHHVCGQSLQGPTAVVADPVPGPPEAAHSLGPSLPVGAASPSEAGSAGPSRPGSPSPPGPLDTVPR
UniProt O75191: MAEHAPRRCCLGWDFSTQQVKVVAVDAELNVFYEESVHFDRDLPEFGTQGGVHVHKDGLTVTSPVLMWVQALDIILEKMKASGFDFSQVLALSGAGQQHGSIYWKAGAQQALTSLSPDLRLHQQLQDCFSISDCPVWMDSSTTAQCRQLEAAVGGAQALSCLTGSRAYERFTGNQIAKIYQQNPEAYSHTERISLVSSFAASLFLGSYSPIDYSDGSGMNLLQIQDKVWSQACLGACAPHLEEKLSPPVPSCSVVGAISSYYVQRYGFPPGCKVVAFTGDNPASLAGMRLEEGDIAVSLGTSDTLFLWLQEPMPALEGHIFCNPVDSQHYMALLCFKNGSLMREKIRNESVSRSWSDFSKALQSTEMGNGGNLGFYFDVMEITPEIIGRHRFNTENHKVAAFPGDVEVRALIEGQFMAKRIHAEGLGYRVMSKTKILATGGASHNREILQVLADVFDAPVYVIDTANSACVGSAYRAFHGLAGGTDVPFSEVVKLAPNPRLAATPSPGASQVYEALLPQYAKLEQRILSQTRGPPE
UniProt O75874, whole entry: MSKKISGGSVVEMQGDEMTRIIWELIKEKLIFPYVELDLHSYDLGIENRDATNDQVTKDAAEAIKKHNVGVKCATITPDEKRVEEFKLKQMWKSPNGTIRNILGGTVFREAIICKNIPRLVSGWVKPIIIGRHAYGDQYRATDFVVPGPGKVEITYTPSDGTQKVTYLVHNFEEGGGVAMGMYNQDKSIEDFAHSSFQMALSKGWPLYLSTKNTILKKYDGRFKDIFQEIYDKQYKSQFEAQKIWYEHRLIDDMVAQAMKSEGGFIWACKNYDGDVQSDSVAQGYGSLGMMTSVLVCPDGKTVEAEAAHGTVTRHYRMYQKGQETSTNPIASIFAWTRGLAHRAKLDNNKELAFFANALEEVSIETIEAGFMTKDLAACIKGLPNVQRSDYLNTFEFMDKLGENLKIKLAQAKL
UniProt O94925: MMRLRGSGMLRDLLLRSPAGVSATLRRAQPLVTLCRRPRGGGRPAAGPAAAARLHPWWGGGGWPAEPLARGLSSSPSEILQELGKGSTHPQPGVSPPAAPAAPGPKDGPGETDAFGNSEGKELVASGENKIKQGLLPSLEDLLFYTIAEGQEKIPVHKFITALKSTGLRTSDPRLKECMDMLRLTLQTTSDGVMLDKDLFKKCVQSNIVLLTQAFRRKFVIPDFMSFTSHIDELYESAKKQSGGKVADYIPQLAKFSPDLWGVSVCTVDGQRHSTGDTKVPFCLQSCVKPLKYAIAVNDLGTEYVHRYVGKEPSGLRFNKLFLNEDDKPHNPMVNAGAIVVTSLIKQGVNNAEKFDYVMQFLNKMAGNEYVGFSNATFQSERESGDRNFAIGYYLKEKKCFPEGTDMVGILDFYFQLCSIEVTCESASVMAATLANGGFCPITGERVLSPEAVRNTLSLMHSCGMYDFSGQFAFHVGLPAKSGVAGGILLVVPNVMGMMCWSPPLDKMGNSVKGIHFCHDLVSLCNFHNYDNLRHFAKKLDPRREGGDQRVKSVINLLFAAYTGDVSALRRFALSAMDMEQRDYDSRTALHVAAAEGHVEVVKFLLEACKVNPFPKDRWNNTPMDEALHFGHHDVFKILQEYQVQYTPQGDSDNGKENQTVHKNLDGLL

Compound: Nc1ncnc2c1ncn2[C@@H]1O[C@H](COP(=O)(O)OP(=O)(O)OP(=O)(O)O)[C@@H](O)[C@H]1O [adenosine triphosphate]
Assay: NP40-soluble protein abundance relative to vehicle (solubility fold change) (ratio); higher = more soluble protein in presence of ATP
In short: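 Each value is a fold change relative to the detergent-processed vehicle, calculated per replicate from vsn-normalised intensities. Jurkat crude lysate received eight concentrations (0.1 to 10 mM) for 10 min at room temperature and 3 min at 37 °C, then was solubilised in 0.8% NP40 with benzonase (60 min, 4 °C). The ultracentrifuged supernatant was TMT-labelled and run by LC-MS/MS in three independent experiments.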

UniProt O60825 and related entries
NP40-soluble protein abundance (concentration: 0.1mM): 1.07 ± 0.083
NP40-soluble protein abundance (concentration: 0.5mM): 1.02 ± 0.028

GRAP2 (UniProt O75791)
NP40-soluble protein abundance (concentration: 0.1mM): 1.05 ± 0.061
NP40-soluble protein abundance (concentration: 0.5mM): 1 ± 0.044

UniProt O75081 and related entries
NP40-soluble protein abundance (concentration: 0.1mM): 0.922 ± 0.042
NP40-soluble protein abundance (concentration: 0.5mM): 0.914 ± 0.13
NP40-soluble protein abundance (concentration: 1mM): 0.943 ± 0.039
NP40-soluble protein abundance (concentration: 2mM): 0.9218 ± 0.0052
NP40-soluble protein abundance (concentration: 4mM): 0.907 ± 0.052
NP40-soluble protein abundance (concentration: 6mM): 0.888 ± 0.14
NP40-soluble protein abundance (concentration: 8mM): 0.888 ± 0.082
NP40-soluble protein abundance (concentration: 10mM): 0.97 ± 0.089

XYLB (UniProt O75191)
NP40-soluble protein abundance (concentration: 0.1mM): 1.04 ± 0.061
NP40-soluble protein abundance (concentration: 0.5mM): 1.03 ± 0.082
NP40-soluble protein abundance (concentration: 1mM): 1 ± 0.053
NP40-soluble protein abundance (concentration: 2mM): 0.986 ± 0.062
NP40-soluble protein abundance (concentration: 4mM): 0.984 ± 0.097
NP40-soluble protein abundance (concentration: 6mM): 0.965 ± 0.069
NP40-soluble protein abundance (concentration: 8mM): 0.99 ± 0.075
NP40-soluble protein abundance (concentration: 10mM): 0.967 ± 0.053

IDH1 (UniProt O75874)
NP40-soluble protein abundance (concentration: 0.1mM): 1.04 ± 0.075
NP40-soluble protein abundance (concentration: 0.5mM): 1.04 ± 0.059
NP40-soluble protein abundance (concentration: 1mM): 0.993 ± 0.056
NP40-soluble protein abundance (concentration: 2mM): 0.988 ± 0.038
NP40-soluble protein abundance (concentration: 4mM): 0.94 ± 0.052
NP40-soluble protein abundance (concentration: 6mM): 0.94 ± 0.081
NP40-soluble protein abundance (concentration: 8mM): 0.957 ± 0.04
NP40-soluble protein abundance (concentration: 10mM): 0.949 ± 0.027

UniProt O94925 and related entries
NP40-soluble protein abundance (concentration: 0.1mM): 1.02 ± 0.034
NP40-soluble protein abundance (concentration: 0.5mM): 1.04 ± 0.074
NP40-soluble protein abundance (concentration: 1mM): 1.02 ± 0.071
NP40-soluble protein abundance (concentration: 2mM): 0.968 ± 0.035
NP40-soluble protein abundance (concentration: 4mM): 0.981 ± 0.078
NP40-soluble protein abundance (concentration: 6mM): 0.944 ± 0.05
NP40-soluble protein abundance (concentration: 8mM): 0.978 ± 0.061
NP40-soluble protein abundance (concentration: 10mM): 0.947 ± 0.039
